# Source: PubChem BioAssay AID624297 (National Center for Advancing Translational Sciences (NCATS), 2012)
# Hit rate of the full screen: of about 340,000 compounds, about 6,200 (1.8%) were called active. The inconclusive results got no clear call from the source; some entries with a clear call stand among them for comparison. Calls follow the shape of the dose curve; as a rule, active = well fitted activation curve with a large enough effect; inconclusive = small, poorly fitted or top-dose-only effect; inactive = no such curve, though single readings can be large or run the other way. Potencies of inconclusive entries are doubtful fits and often do not repeat.
# Assay: A quantitative high throughput screen for small molecules that induce DNA re-replication in SW480 colon adenocarcinoma cells. Also: nearly all actives have a fitted effect of over 55% in size.
# Details: Hoechst DNA content imaging, 48 h; series mostly up to 46.1 µM
# Method in brief: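 Image-based DNA-content assay: after two days of treatment, nuclei were labelled with the DNA dye Hoechst and imaged, and hits were compounds raising the count of nuclei showing high fluorescence intensity.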
# Potency is read from the fitted curve at half-maximal effect.
row,SMILES,Potency
1,Nc1c(NC2CCCCC2)c2ccccc2oc1=O,inactive
2,Cc1sc(NC(=O)c2c(F)cccc2F)nc1-c1ccccc1,"inconclusive: 20.6 µM [activator, single point]"
3,CN1CCN(Cc2cc(Cl)c3cccnc3c2OC(=O)c2cccs2)CC1,"inconclusive: 23.1 µM [activator, single point]"
4,Fc1ccc(CN2C3=NCCN3c3ccccc32)cc1,"inconclusive: 0.13 µM [activator, partial curve, poor fit]"
5,CN1C(=O)c2cccc3c(S(N)(=O)=O)ccc1c23,"inconclusive: 0.58 µM [activator, full curve, poor fit]"
6,OCC1(Cc2ccc(F)cc2F)CCCN(CCCc2ccccc2)C1 (stereo not given),"inconclusive: 29.1 µM [activator, single point]"
7,Cc1ccc2cc(C#N)c(NCCNC(=S)NCCCN(C)C)nc2c1C,"inconclusive: 29.1 µM [activator, single point]"
8,CCOc1ccc(NS(=O)(=O)c2cc(NC(=O)c3ccc(C)cc3)ccc2Cl)cc1,active: 4.61 µM
9,COc1cccc(CNC(=O)CCC2CCCN(C(=O)CCc3c(C)noc3C)C2)c1 (stereo not given),"inconclusive: 0.259 µM [activator, single point]"
10,COc1ccc(C(=O)Nc2ccccc2C(=O)Nc2cccc(C)n2)cc1,"inconclusive: 0.116 µM [activator, full curve, poor fit]"
11,COc1ccccc1CNC(=O)COC(=O)Cc1ccc(F)cc1,"inconclusive: 23.1 µM [activator, single point]"
12,CC(=O)Nc1ccc(C2CC(c3ccc(Cl)cc3)=NN2c2ccccc2)cc1 (stereo not given),active: 1.46 µM
13,Cc1ccc(S(=O)(=O)Oc2ccccc2/C=N/O)cc1,inactive
14,Cc1cccc(NC(=O)c2ccc([N+](=O)[O-])s2)c1C,"inconclusive: 29.1 µM [activator, single point]"
15,COc1ccc(S(=O)(=O)Nc2ccc3c(c2)CCC3)cc1,"inconclusive: 11.6 µM [activator, single point]"
16,CC1CCCN(S(=O)(=O)c2ccc(C(=O)Nc3sc4c(c3C(N)=O)CCN(C)C4)cc2)C1 (stereo not given),"inconclusive: 20.6 µM [activator, single point]"
17,COc1cc2c(cc1OC)CN(C(=O)c1cc3ccccc3oc1=O)CC2,"inconclusive: 29.1 µM [activator, single point]"
18,CS(=O)(=O)c1ccc(Cl)c(NC(=O)CN2C(=O)C3CCCCC3C2=O)c1 (stereo not given),inactive
19,COc1cc(/C=C2/NC(=O)NC2=O)cc(Br)c1OCc1ccccc1,"inconclusive: 29.1 µM [activator, single point]"
20,FC(F)(F)Oc1ccc(Nc2nc(N3CCOCC3)nc(N3CCOCC3)n2)cc1,active: 20.6 µM
21,Cc1cc(C)cc(NC(=O)COC(=O)CCCC2=NS(=O)(=O)c3ccccc3N2)c1,"inconclusive: 29.1 µM [activator, single point]"
22,COc1ccccc1CCC(=O)OCC(=O)N1CCN(S(=O)(=O)c2ccc(C)cc2C)CC1,"inconclusive: 29.1 µM [activator, single point]"
23,C[C@H](CO)N1C[C@H](C)[C@@H](CN(C)S(=O)(=O)c2cccs2)Oc2ccc(NC(=O)CCC(F)(F)F)cc2C1=O,inactive
24,CCN1C(=O)c2cccc3c(S(=O)(=O)Nc4ccccn4)ccc1c23,inactive

row,SMILES,Potency
1,Cc1ccc(-n2c(C)cc(C(=O)CSc3nnc4ccccn34)c2C)cc1,"inconclusive: 14.6 µM [activator, partial curve, poor fit]"
2,COc1cnc(-c2ccccn2)nc1N(C)c1ccccc1,"inconclusive: 3.66 µM [activator, partial curve, poor fit]"
3,O=S(=O)(NCCOCC(F)(F)C(F)F)c1ccc2oc3ccccc3c2c1,"inconclusive: 32.6 µM [activator, partial curve, poor fit]"
4,Cc1cc2nc(-c3ccc(SCc4ccc(C#N)cc4)nc3)[nH]c2cc1C,"inconclusive: 29.1 µM [activator, single point]"
5,Cc1ccc(-c2csc(NC3OC(=O)c4ccccc43)n2)cc1 (stereo not given),"inconclusive: 18.4 µM [activator, single point]"
6,COc1ccccc1C1C=C(c2ccccc2)Nc2nnnn21 (stereo not given),"inconclusive: 5.8 µM [activator, partial curve]"
7,CCOC(=O)C1=C(CC)OC(N)=C(C#N)C1c1ccsc1 (stereo not given),active: 0.259 µM
8,Cc1ccc(O)c(C(=O)c2cc(C#N)c3nc4ccccc4n3c2)c1,"inconclusive: 1.46 µM [activator, full curve, poor fit]"
9,Cc1cccc(/C=C2/Sc3ccc(C(=O)NCCN4CCCC4)cc3NC2=O)c1,"inconclusive: 11.6 µM [activator, single point]"
10,CN1C(C(=O)NCc2cccc(Br)c2)CC2Cn3c(nc4cc5ccccc5cc43)C21 (stereo not given),inactive
11,COc1ccc(NC(=O)CN(c2ccc([N+](=O)[O-])cc2)S(=O)(=O)c2ccccc2)cc1,"inconclusive: 16.4 µM [activator, single point]"
12,COC(=O)C1=C(C)N(Cc2ccccc2)C(=S)N[C@H]1c1ccc(Br)cc1,"inconclusive: 20.6 µM [activator, single point]"
13,Cc1ccc2sc(NNC(=O)C3=COCCO3)nc2c1C,"inconclusive: 29.1 µM [activator, single point]"
14,COc1ccc(-c2nnc3ccc(SC)nn23)cc1,inactive
15,O=C(Cc1ccccc1)N(c1ccc(F)cc1)C1C=CS(=O)(=O)C1 (stereo not given),"inconclusive: 25.9 µM [activator, single point]"
16,Cc1ccc(NC(=O)c2cc(CC(C)C)nc3ccccc23)cc1,inactive
17,Cc1cccc(NC(=O)CN2CCc3cc4c(cc3C2C)OCCCO4)c1 (stereo not given),"inconclusive: 29.1 µM [activator, single point]"
18,CCCCN(C(=O)CSc1nn(-c2ccc(F)cc2)c(=S)s1)c1c(N)n(CCCC)c(=O)[nH]c1=O,"inconclusive: 29.1 µM [activator, single point]"
19,COc1ccc2c(c1)c(C(=O)N/N=C/c1ccc(Cl)cc1)c(C)n2C,"inconclusive: 18.4 µM [activator, single point]"
20,N#Cc1ccc(S(=O)(=O)N2CCN(C(=O)[C@@H]3CCCN3C(=O)c3cccs3)CC2)cc1,inactive
21,Cc1ccc(C(=O)CCNc2ccccc2)o1,"inconclusive: 20 µM [activator, single point]"
22,COc1ccc(Nc2ccc(Nc3ccc(OC)cc3)nn2)cc1,"inconclusive: 29.1 µM [activator, single point]"
23,CSc1nc(N(C)NC(=O)c2ccccc2)c2ccccc2n1,"inconclusive: 0.92 µM [activator, full curve, poor fit]"
24,O=C(Nc1nc2cc3c(cc2s1)OCO3)C1=COCCO1,active: 16.4 µM

row,SMILES,Potency
1,COc1ccc(CCNC(=O)C2CC(c3cccc([N+](=O)[O-])c3)=NO2)cc1 (stereo not given),"inconclusive: 0.651 µM [activator, single point]"
2,COc1cc(OC)cc(C(=O)N/N=C/c2ccc(OC)c(COc3ccc4ccccc4c3)c2)c1,"inconclusive: 20.6 µM [activator, single point]"
3,CC(C)(C)c1ccc(Oc2ccc(NC(=O)c3cccs3)cn2)cc1,inactive
4,Cc1cccc(C)c1OC(=O)C(c1ccccc1)c1ccccc1,"inconclusive: 16.4 µM [activator, single point]"
5,O=C(COC(=O)c1ccc(Cl)nc1)NNC(=O)c1ccc(Cl)cc1,"inconclusive: 5.17 µM [activator, partial curve, poor fit]"
6,O=C(CSc1nnnn1-c1ccccc1)N1CCCc2ccccc21,inactive
7,COc1cc(OC)c2c(C)cc(=O)oc2c1C(CCN1CCN(c2ccccc2)CC1)c1ccc2c(c1)OCO2 (stereo not given),"inconclusive: 20.6 µM [activator, single point]"
8,Cc1ccccc1CN1C(=O)C2(OCCCO2)c2ccccc21,inactive
9,Cc1cc(-c2ccccc2)nc(N/N=C/c2ccccc2F)n1,"inconclusive: 29.1 µM [activator, single point]"
10,CCCn1nc(NC(=O)CC)c2cc3cccc(C)c3nc21,active: 16.4 µM
11,CCOC(=O)c1cnc2c(Cl)cccc2c1NCCN(C)C,"inconclusive: 32.6 µM [activator, partial curve, poor fit]"
12,CN(C)S(=O)(=O)c1ccc(N2CCCC2)c(C(=O)Nc2nccs2)c1,inactive
13,Cc1cccc(NC(=S)N2CCC(N(C)CC3CCCO3)CC2)c1 (stereo not given),inactive
14,CN(Cc1ccon1)Cc1cn(C)nc1-c1cccc(Cl)c1,"inconclusive: 29.1 µM [activator, partial curve, poor fit]"
15,Cc1cc(Nc2cnc3ccccc3n2)n(-c2ccccc2)n1,"inconclusive: 18.4 µM [activator, partial curve, poor fit]"
16,O=C(Nc1ccccc1F)c1oc2ccccc2c1NC(=O)C1CC1,"inconclusive: 29.1 µM [activator, single point]"
17,COCc1ccc(C(=O)NC2CCCc3c2cnn3-c2cc(C)cc(C)c2)s1 (stereo not given),inactive
18,CCCCn1c(=O)[nH]c(=O)c2c1nc(-c1ccc(-c3ccccc3Br)o1)n2CC,"inconclusive: 7.31 µM [activator, partial curve]"
19,CC(=O)N1CCN(C(=S)Nc2ccc(SC(F)F)cc2)CC1,inactive
20,N#Cc1ccccc1Sc1ccccc1C(=O)Nc1ccc2ccccc2c1,inactive
21,COc1ccc(/C(C)=N/Nc2ccc(C(=O)O)cc2)c(OC)c1,inactive
22,CCN1CCN(C2=C(NS(=O)(=O)c3ccccc3)C(=O)c3ccccc3C2=O)CC1,active: 18.4 µM

# Copied from the list:
# Entry for Cc1ccccc1CN1C(=O)C2(OCCCO2)c2ccccc21 under Potency: inactive
# Entry for CN(Cc1ccon1)Cc1cn(C)nc1-c1cccc(Cl)c1 under Potency: inconclusive: 29.1 µM [activator, partial curve, poor fit]
# Entry for COc1cc(OC)c2c(C)cc(=O)oc2c1C(CCN1CCN(c2ccccc2)CC1)c1ccc2c(c1)OCO2 (stereo not given) under Potency: inconclusive: 20.6 µM [activator, single point]
